Source: the supplement of paper PMC12872613
The list shows a part of the results. Rule as the data show it: active = 0.7 or more and inactive = the rest. Many values rest on one well or one pass, so single values are uncertain.

The compounds below were run on MiaPaCa-2 CLSA-25 (assay: cell death relative to DMSO vehicle (fraction); higher = more cytotoxic). Conditions: 5 µM; treatment time 48 h; medium cystine 25 µM.
With `Cc1c(C(=O)N2CCOc3ccc(-c4ccc(N)nc4)cc3C2)ccc(S(C)(=O)=O)c1F` the cell death was inactive: 0.471.
`O=C(Oc1ccc([N+](=O)[O-])cc1)N1CCN(Cc2cccc(Oc3ccccc3)c2)CC1` was tested, and the cell death was inactive: 0.117.
For `NS(=O)(=O)c1cc2c(cc1C(F)(F)F)NC(Cc1ccccc1)NS2(=O)=O` (stereo not drawn) [Bendroflumethiazide], the cell death was inactive: 0.138.
With `CC[C@H](C)C(=O)O[C@H]1CCC=C2C=C[C@H](C)[C@H](CC[C@@H]3C[C@@H](O)CC(=O)O3)[C@H]21` [Mevastatin] the cell death was active: 0.72.
With `O=C(O)CCCCC(CCSCc1ccccc1)SCc1ccccc1` (stereo not drawn) the cell death was inactive: 0.489.
In the case of `O=C(Cc1cccc(OC(F)(F)F)c1)Nc1ccc(CCCCc2nnc(NC(=O)Cc3ccccn3)s2)nn1`, the cell death was inactive: 0.107.
For `CCCCNC(=O)NS(=O)(=O)c1ccc(C)cc1` [Tolbutamide], the cell death was inactive: 0.209.
`CCCCCCCC(=O)N[C@H](CN1CCCC1)[C@H](O)c1ccc2c(c1)OCCO2` [Eliglustat] was tested, and the cell death was inactive: 0.0762.
